{"source": "PubChem BioAssay AID2685", "about": "(National Center for Advancing Translational Sciences (NCATS), 2010)", "test": "qHTS Assay for Lipid Storage Modulators in Drosophila S3 Cells;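 on cell number change: cells counted by Cell Tracker Red CMTPX staining in the red channel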", "details": "BODIPY lipid droplet fluorescence, 18-24 h; for cell number change: measured here: cell count max response, cells fed with added oleic acid", "how_it_was_run": "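Laser-scanning cytometry quantifies lipid droplet accumulation (500–530 nm total intensity; droplet/cell object ratio) in oleic acid-fed (400 uM added) Drosophila S3 cells treated with a concentration series. 20 uM Triacsin C defined 100% inhibition.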", "key": {"[1]": {"details": "measured here: cell number channel AC50, cells fed with added oleic acid"}, "[2]": {"details": "measured here: lipid fluorescence (Fed channel) AC50, cells fed with added oleic acid"}}, "note": "“And” between values parts separate entries of the source, which are not always exact repeats. Equal entries are not always repeated. The list shows a part of the results. Shown are side measurements of this screen, not its main read-out; they come without a call. The list favours compounds with an active or inconclusive main result. Words in brackets tell the shape of the fitted curve; partial curves, single points and poor fits give uncertain potencies."}
{"compound": "CC(=O)NS(=O)(=O)c1ccc(NC(=O)/C=C/c2ccco2)cc1", "values": [{"measurement": "cell number change", "result": -38, "unit": "%"}, {"measurement": "AC50", "setting": "[1]", "result": "0.082 µM [falling, full curve, poor fit]"}, {"measurement": "AC50", "setting": "[2]", "result": "0.082 µM [falling, full curve]"}]}
{"compound": "CCN1C(c2ccccc2)=C(c2ccccc2)S/C1=C/C=C1\\SC(=S)N(C)C1=O", "values": [{"measurement": "cell number change", "result": -45.2, "unit": "%"}, {"measurement": "AC50", "setting": "[1]", "result": "2.31 µM [falling, full curve]"}, {"measurement": "AC50", "setting": "[2]", "result": "1.16 µM [falling, full curve]"}]}
{"compound": "CCOC(=O)Nc1ccc2c(CN(C)Cc3ccc(F)cc3)cc(=O)oc2c1", "values": [{"measurement": "cell number change", "result": 20.7, "unit": "%"}, {"measurement": "AC50", "setting": "[2]", "result": "29.1 µM [falling, single point]"}]}
{"compound": "CCOC(=O)C1(O)CSc2nc3sc(C(=O)O)c(C)c3c(=O)n21", "note": "(stereo unspecified)", "values": [{"measurement": "cell number change", "result": -9.99, "unit": "%"}, {"measurement": "AC50", "setting": "[2]", "result": "25.9 µM [falling, partial curve, poor fit]"}]}
{"compound": "O=[N+]([O-])c1cccnc1N1CCC(c2cc(-c3cccc(C(F)(F)F)c3)n[nH]2)CC1", "values": [{"measurement": "cell number change", "result": -92.8, "unit": "%"}, {"measurement": "AC50", "setting": "[1]", "result": "29.1 µM [falling, single point]"}]}
{"compound": "CCc1ccc2[nH]c(C(=O)Nc3ccc(Br)c(C)n3)cc2c1", "values": [{"measurement": "cell number change", "result": 25, "unit": "%"}]}
{"compound": "Cc1ccc(Nc2nc(N)nc(CN3CCN(c4ccccc4)CC3)n2)cc1Cl", "values": [{"measurement": "cell number change", "result": -12.2, "unit": "%"}]}
{"compound": "COc1cc([N+](=O)[O-])ccc1NC(=O)C[n+]1ccccc1C", "values": [{"measurement": "cell number change", "result": 17.1, "unit": "%"}, {"measurement": "AC50", "setting": "[2]", "result": "29.1 µM [rising, single point]"}]}
{"compound": "CCNC(=O)Nc1cc(S(=O)(=O)Nc2ccc(OC)cc2)ccc1N1CCOCC1", "values": [{"measurement": "cell number change", "result": -46.1, "unit": "%"}, {"measurement": "AC50", "setting": "[1]", "result": "10.3 µM [falling, partial curve, poor fit]"}, {"measurement": "AC50", "setting": "[2]", "result": "5.17 µM [falling, full curve]"}]}
{"compound": "O=C(CSc1nnc(-c2cccc(S(=O)(=O)N3CCCCC3)c2)o1)NCCC1=CCCCC1", "values": [{"measurement": "cell number change", "result": 56, "unit": "%"}, {"measurement": "AC50", "setting": "[1]", "result": "5.8 µM [rising, full curve]"}]}
{"compound": "CCOC(=O)N1CCN(CC(O)COc2ccccc2C(C)(C)C)CC1", "note": "(stereo unspecified)", "values": [{"measurement": "cell number change", "result": -7.91, "unit": "%"}, {"measurement": "AC50", "setting": "[2]", "result": "0.58 µM [falling, full curve, poor fit]"}]}
{"compound": "COc1ccccc1CC(=O)NCc1ccc2c(c1)OCO2", "values": [{"measurement": "AC50", "setting": "[1]", "result": "0.82 µM [rising, partial curve]"}, {"measurement": "AC50", "setting": "[2]", "result": "6.51 µM [rising, single point]"}]}
{"compound": "COCCn1c(=NC(C)=O)sc2cc([N+](=O)[O-])ccc21", "values": [{"measurement": "cell number change", "result": 24, "unit": "%"}, {"measurement": "AC50", "setting": "[2]", "result": "10.3 µM [rising, partial curve, poor fit]"}]}
{"compound": "CC(C)CCC[C@@H](C)[C@H]1CC[C@H]2[C@@H]3C(=O)C=C4C[C@@H](O)CC[C@]4(C)[C@H]3CC[C@]12C", "values": [{"measurement": "cell number change", "result": -27.2, "unit": "%"}]}
{"compound": "Cc1nn(C)cc1CNCc1c(C(=O)N2CCCCC2)nc2c(C)cccn12", "values": [{"measurement": "cell number change", "result": 4.57, "unit": "%"}, {"measurement": "AC50", "setting": "[1]", "result": "0.731 µM [falling, single point]"}, {"measurement": "AC50", "setting": "[2]", "result": "0.731 µM [falling, single point]"}]}
{"compound": "COc1cc(OC)cc(C(=O)N2CCN(C(=O)c3cccnc3)CC2)c1", "values": [{"measurement": "cell number change", "result": 11.8, "unit": "%"}, {"measurement": "AC50", "setting": "[2]", "result": "6.51 µM [rising, single point]"}]}
{"compound": "COc1ccccc1/C=C/C(=O)OCC(=O)NNC(=O)c1ccccc1", "values": [{"measurement": "cell number change", "result": 27, "unit": "%"}, {"measurement": "AC50", "setting": "[2]", "result": "1.64 µM [rising, partial curve]"}]}
{"compound": "O=C(CCC1CCCC1)Nc1ccc([N+](=O)[O-])cn1", "values": [{"measurement": "cell number change", "result": -7.57, "unit": "%"}]}
{"compound": "O=C(OCc1ccc(Cl)cc1)c1cnccn1", "values": [{"measurement": "AC50", "setting": "[2]", "result": "3.66 µM [falling, full curve]"}]}
{"compound": "CC(=O)Nc1ccc(S(=O)(=O)NC(C)c2ccncc2)cc1", "note": "(stereo unspecified)", "values": [{"measurement": "cell number change", "result": -14.9, "unit": "%"}, {"measurement": "AC50", "setting": "[2]", "result": "29.1 µM [falling, single point]"}]}
{"compound": "Cc1ccc(S(=O)(=O)NC(CC(C)C)C(=O)N2CCC(C)CC2)cc1", "note": "(stereo unspecified)", "values": [{"measurement": "cell number change", "result": 19.3, "unit": "%"}]}
{"compound": "O=C(CN1CCC(Cc2ccccc2)CC1)NC(=O)NCc1ccco1", "values": [{"measurement": "cell number change", "result": -15.3, "unit": "%"}]}
{"compound": "Cn1c(SCc2nc3ccccc3c(=O)[nH]2)nc2ccccc21", "values": [{"measurement": "AC50", "setting": "[2]", "result": "0.116 µM [falling, single point]"}]}
{"compound": "NC(=O)C1CCN(C(=O)c2cnn(-c3ccccc3)c2NC(=O)c2cccc(F)c2)CC1", "values": [{"measurement": "cell number change", "result": -2.38, "unit": "%"}, {"measurement": "AC50", "setting": "[2]", "result": "0.146 µM [falling, full curve, poor fit]"}]}
{"compound": "CC(=O)N(c1ccccc1)C(C)c1nc(C#N)c(C#N)nc1C", "note": "(stereo unspecified)", "values": [{"measurement": "cell number change", "result": -22.1, "unit": "%"}, {"measurement": "AC50", "setting": "[2]", "result": "0.231 µM [falling, full curve, poor fit]"}]}
{"compound": "OCCN(CCO)CC(O)COc1ccc(Br)cc1", "note": "(stereo unspecified)", "values": [{"measurement": "cell number change", "result": "-30.2% and -5.12%"}, {"measurement": "AC50", "setting": "[1]", "result": "1.46 µM [rising, partial curve]"}]}
{"compound": "COC(=O)c1sccc1NC(=O)c1csc(C)c1", "values": [{"measurement": "AC50", "setting": "[2]", "result": "6.51 µM [rising, single point]"}]}
{"compound": "CC(/C=N/N1C(=O)CSC1=S)=C\\c1ccccc1", "values": [{"measurement": "cell number change", "result": 74.8, "unit": "%"}, {"measurement": "AC50", "setting": "[1]", "result": "23.1 µM [rising, single point]"}, {"measurement": "AC50", "setting": "[2]", "result": "6.51 µM [falling, single point]"}]}
{"compound": "COc1ccccc1OCCn1c(=O)n(C)c2ccccc21", "values": [{"measurement": "cell number change", "result": -6.77, "unit": "%"}]}
{"compound": "CC(=O)c1cccc(N(CC(=O)Nc2ccc(S(=O)(=O)N3CCOCC3)cc2)S(C)(=O)=O)c1", "values": [{"measurement": "cell number change", "result": -6.74, "unit": "%"}]}
{"compound": "COCCNC(=O)C(c1ccc(Cl)cc1)N(Cc1ccco1)C(=O)CCC(=O)Nc1ccccn1", "note": "(stereo unspecified)", "values": [{"measurement": "cell number change", "result": 4.17, "unit": "%"}]}
{"compound": "Cc1ccn2c(=O)nc(SCC(=O)NCc3ccc4c(c3)OCO4)nc2c1", "values": [{"measurement": "AC50", "setting": "[1]", "result": "5.17 µM [rising, single point]"}]}
{"compound": "CC(=O)CC(=O)NC1C2CC3CC(C2)CC1C3", "note": "(stereo unspecified)", "values": [{"measurement": "cell number change", "result": -35.7, "unit": "%"}, {"measurement": "AC50", "setting": "[1]", "result": "0.116 µM [falling, full curve]"}, {"measurement": "AC50", "setting": "[2]", "result": "0.411 µM [falling, single point]"}]}
{"compound": "Cc1cccc(C)c1NC(=O)CN1CCN(CC(=O)c2cc(C)n(C3CC3)c2C)CC1", "values": [{"measurement": "cell number change", "result": 34.6, "unit": "%"}, {"measurement": "AC50", "setting": "[2]", "result": "6.51 µM [falling, full curve, poor fit]"}]}
{"compound": "CCOC(=O)c1cccc(Nc2ncnc3ccc(C)cc23)c1", "values": [{"measurement": "cell number change", "result": 89.4, "unit": "%"}]}
{"compound": "CC(C)CC(=O)Nc1nnc(S(=O)(=O)Nc2ccccc2)s1", "values": [{"measurement": "AC50", "setting": "[2]", "result": "6.51 µM [falling, single point]"}]}
{"compound": "COc1cccc(C2CC(c3cccs3)=NN2S(C)(=O)=O)c1", "note": "(stereo unspecified)", "values": [{"measurement": "cell number change", "result": 23.5, "unit": "%"}, {"measurement": "AC50", "setting": "[1]", "result": "0.058 µM [rising, full curve, poor fit]"}]}
{"compound": "Cc1c(OCc2ccc(C(=O)O)cc2)ccc2c(-c3ccccc3)cc(=O)oc12", "values": [{"measurement": "cell number change", "result": -13.3, "unit": "%"}, {"measurement": "AC50", "setting": "[2]", "result": "1.46 µM [falling, single point]"}]}
{"compound": "C[C@H](NC(=O)c1ccccc1Cl)C(=O)OC(C(=O)Nc1cc(C(F)(F)F)ccc1Cl)c1ccccc1", "note": "(stereo partly specified)", "values": [{"measurement": "cell number change", "result": 87.3, "unit": "%"}, {"measurement": "AC50", "setting": "[1]", "result": "18.4 µM [rising, single point]"}]}
{"compound": "CC(C)Cn1cnc2c(c(-c3ccccc3)c(-c3ccccc3)n2Cc2ccco2)c1=N", "values": [{"measurement": "cell number change", "result": -18.3, "unit": "%"}, {"measurement": "AC50", "setting": "[2]", "result": "3.26 µM [rising, single point]"}]}
